Structures can show the parent of a compound that is named as a salt. The list shows a part of the results. Single values are uncertain here, since repeats match poorly.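 Screen of FDA-approved drugs, each combined with colistin at one-eighth of its MIC, against a multidrug-resistant mcr-1-positive clinical E. coli isolate; growth read as OD600 after 24 h. Bacteria without drug were the growth control and plain broth the blank. A combination counted as active when OD600 fell below 0.2.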
test system: Escherichia coli 42 (mcr-1-positive clinical isolate); test: OD600 after 24 h growth with compound plus colistin (absorbance units (OD600)); higher = more bacterial growth (less inhibition); conditions: first compound 25 µM; colistin concentration 0.5 ug/mL; incubation time 24 h; 37 °C

OD600, inactive:
CC(=O)[C@H]1CC[C@H]2[C@@H]3CCC4=CC(=O)CC[C@]4(C)[C@H]3CC[C@]12C [Progesterone] + CCC(C)CCCC(=O)N[C@@H](CCN)C(=O)N[C@H](C(=O)N[C@@H](CCN)C(=O)N[C@H]1CCNC(=O)[C@H]([C@@H](C)O)NC(=O)[C@H](CCN)NC(=O)[C@H](CCN)NC(=O)[C@H](CC(C)C)NC(=O)[C@@H](CC(C)C)NC(=O)[C@H](CCN)NC1=O)[C@@H](C)O [colistin] 0.892
COCCCOc1cc(C[C@@H](C[C@H](N)[C@@H](O)C[C@H](C(=O)NCC(C)(C)C(N)=O)C(C)C)C(C)C)ccc1OC [Aliskiren hemifumarate] + CCC(C)CCCC(=O)N[C@@H](CCN)C(=O)N[C@H](C(=O)N[C@@H](CCN)C(=O)N[C@H]1CCNC(=O)[C@H]([C@@H](C)O)NC(=O)[C@H](CCN)NC(=O)[C@H](CCN)NC(=O)[C@H](CC(C)C)NC(=O)[C@@H](CC(C)C)NC(=O)[C@H](CCN)NC1=O)[C@@H](C)O [colistin] 0.93
CCN[C@H]1C[C@H](C)S(=O)(=O)c2sc(S(N)(=O)=O)cc21 [Dorzolamide hydrochloride] + CCC(C)CCCC(=O)N[C@@H](CCN)C(=O)N[C@H](C(=O)N[C@@H](CCN)C(=O)N[C@H]1CCNC(=O)[C@H]([C@@H](C)O)NC(=O)[C@H](CCN)NC(=O)[C@H](CCN)NC(=O)[C@H](CC(C)C)NC(=O)[C@@H](CC(C)C)NC(=O)[C@H](CCN)NC1=O)[C@@H](C)O [colistin] 0.993
CC(C)c1c(C(=O)Nc2ccccc2)c(-c2ccccc2)c(-c2ccc(F)cc2)n1CC[C@@H](O)C[C@@H](O)CC(=O)O [Atorvastatin hemicalcium salt] + CCC(C)CCCC(=O)N[C@@H](CCN)C(=O)N[C@H](C(=O)N[C@@H](CCN)C(=O)N[C@H]1CCNC(=O)[C@H]([C@@H](C)O)NC(=O)[C@H](CCN)NC(=O)[C@H](CCN)NC(=O)[C@H](CC(C)C)NC(=O)[C@@H](CC(C)C)NC(=O)[C@H](CCN)NC1=O)[C@@H](C)O [colistin] 0.919
CCN1CCN(Cc2ccc(Nc3ncc(F)c(-c4cc(F)c5nc(C)n(C(C)C)c5c4)n3)nc2)CC1 [Abemaciclib] + CCC(C)CCCC(=O)N[C@@H](CCN)C(=O)N[C@H](C(=O)N[C@@H](CCN)C(=O)N[C@H]1CCNC(=O)[C@H]([C@@H](C)O)NC(=O)[C@H](CCN)NC(=O)[C@H](CCN)NC(=O)[C@H](CC(C)C)NC(=O)[C@@H](CC(C)C)NC(=O)[C@H](CCN)NC1=O)[C@@H](C)O [colistin] 1.07
O=C(O)COCCN1CCN([C@H](c2ccccc2)c2ccc(Cl)cc2)CC1 [Levocetirizine] + CCC(C)CCCC(=O)N[C@@H](CCN)C(=O)N[C@H](C(=O)N[C@@H](CCN)C(=O)N[C@H]1CCNC(=O)[C@H]([C@@H](C)O)NC(=O)[C@H](CCN)NC(=O)[C@H](CCN)NC(=O)[C@H](CC(C)C)NC(=O)[C@@H](CC(C)C)NC(=O)[C@H](CCN)NC1=O)[C@@H](C)O [colistin] 1.07
Cc1ncc([N+](=O)[O-])n1CCO [Metronidazole] + CCC(C)CCCC(=O)N[C@@H](CCN)C(=O)N[C@H](C(=O)N[C@@H](CCN)C(=O)N[C@H]1CCNC(=O)[C@H]([C@@H](C)O)NC(=O)[C@H](CCN)NC(=O)[C@H](CCN)NC(=O)[C@H](CC(C)C)NC(=O)[C@@H](CC(C)C)NC(=O)[C@H](CCN)NC1=O)[C@@H](C)O [colistin] 0.855
CCc1ccc(CCOc2ccc(CC3SC(=O)NC3=O)cc2)nc1 (centres undefined) [Pioglitazone] + CCC(C)CCCC(=O)N[C@@H](CCN)C(=O)N[C@H](C(=O)N[C@@H](CCN)C(=O)N[C@H]1CCNC(=O)[C@H]([C@@H](C)O)NC(=O)[C@H](CCN)NC(=O)[C@H](CCN)NC(=O)[C@H](CC(C)C)NC(=O)[C@@H](CC(C)C)NC(=O)[C@H](CCN)NC1=O)[C@@H](C)O [colistin] 1.06
C[C@@H]1C[C@H]2[C@@H]3CCC4=CC(=O)C=C[C@]4(C)[C@@]3(F)[C@@H](O)C[C@]2(C)[C@@]1(O)C(=O)CO [Dexamethasone] + CCC(C)CCCC(=O)N[C@@H](CCN)C(=O)N[C@H](C(=O)N[C@@H](CCN)C(=O)N[C@H]1CCNC(=O)[C@H]([C@@H](C)O)NC(=O)[C@H](CCN)NC(=O)[C@H](CCN)NC(=O)[C@H](CC(C)C)NC(=O)[C@@H](CC(C)C)NC(=O)[C@H](CCN)NC1=O)[C@@H](C)O [colistin] 1.11

An excerpt from further up, for reference:
OD600, inactive:
CC(=O)[C@H]1CC[C@H]2[C@@H]3CCC4=CC(=O)CC[C@]4(C)[C@H]3CC[C@]12C [Progesterone] + CCC(C)CCCC(=O)N[C@@H](CCN)C(=O)N[C@H](C(=O)N[C@@H](CCN)C(=O)N[C@H]1CCNC(=O)[C@H]([C@@H](C)O)NC(=O)[C@H](CCN)NC(=O)[C@H](CCN)NC(=O)[C@H](CC(C)C)NC(=O)[C@@H](CC(C)C)NC(=O)[C@H](CCN)NC1=O)[C@@H](C)O [colistin] 0.892
COCCCOc1cc(C[C@@H](C[C@H](N)[C@@H](O)C[C@H](C(=O)NCC(C)(C)C(N)=O)C(C)C)C(C)C)ccc1OC [Aliskiren hemifumarate] + CCC(C)CCCC(=O)N[C@@H](CCN)C(=O)N[C@H](C(=O)N[C@@H](CCN)C(=O)N[C@H]1CCNC(=O)[C@H]([C@@H](C)O)NC(=O)[C@H](CCN)NC(=O)[C@H](CCN)NC(=O)[C@H](CC(C)C)NC(=O)[C@@H](CC(C)C)NC(=O)[C@H](CCN)NC1=O)[C@@H](C)O [colistin] 0.93

From the supplement of paper PMC11546906
